Results reported in patent US20220241369A1, “COMPOSITIONS AND METHODS OF MODULATING INFLAMMATION” (La Jolla Institute for Allergy and Immunology, priority 2018, published 2022).
At least one read-out could not be matched to a standard name with certainty.

Test system: mouse bone marrow-derived mast cells (BMMCs)
Assay: IL-13 production of IgE-sensitized BMMCs stimulated with TNP3-BSA and mHRF dimer
Assay type: cell-based
Conditions: 25 and 50 μg/ml together with TNP3-BSA
Experimental: FIGS. 33A-33B show HRF dimers enhance IgE/antigen-induced activation of mast cells and basophils. […] IL-13 in culture supernatants was quantified by ELISA. […] Then, HDM allergen (Dermatophagoides farinae at 10 ng/ml) was added to the cells together with FITC-anti-CD63 and APC-anti-CCR3 for 15 min. Expression of CD63 (activation marker) and CCR3 (basophil marker) was analyzed by flow cytometry.

B1: HRF dimer: recombinant disulfide-linked dimer of mouse histamine releasing factor (protein, UniProt P63028 1-172, looked up)
Translationally-controlled …: MIIYRDLISHDELFSDIYKIREIADGLCLEVEGKMVSRTEGAIDDSLIGGNASAEGPEGEGTESTVVTGVDIVMNHHLQETSFTKEAYKKYIKDYMKSLKGKLEEQKPERVKPFMTGAAEQIKHILANFNNYQFFIGENMNPDGMVALLDYREDGVTPFMIFFKDGLEMEKC
modifications: disulfide-linked dimer
notes: recombinant disulfide-linked dimer of mouse histamine releasing factor
For B1, the “effect on EC50 of antigen” value was “reduced”.
